Test results published in PubChem BioAssay AID2685 (National Center for Advancing Translational Sciences (NCATS), 2010).
This is one part of the list. The main result of the screen is listed elsewhere. These columns were measured beside it and carry no call. The list favours compounds with an active or inconclusive main result. Words in brackets tell the shape of the fitted curve; partial curves, single points and poor fits give uncertain potencies.

Assay: qHTS Assay for Lipid Storage Modulators in Drosophila S3 Cells;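 for cell number change: cells counted by Cell Tracker Red CMTPX staining in the red channel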
Details: BODIPY lipid droplet fluorescence, 18-24 h; for cell number change: measured here: cell count max response, cells fed with added oleic acid
Summary of the method: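 Drosophila S3 cells got compounds at several concentrations plus oleic acid (400 uM solution). Laser-scanning cytometry with 488 nm excitation read lipid droplets at 500-530 nm and cells at 575-640 nm. Percent activity was relative to 20 uM Triacsin C.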

[1] = measured here: lipid fluorescence (Fed channel) AC50, cells fed with added oleic acid
[2] = measured here: cell number channel AC50, cells fed with added oleic acid

Row | Compound | cell number change | AC50 [1] | AC50 [2]
1 | COc1cc2c(=O)n(Cc3ccccc3)c(=O)n(CC(=O)NCC3CCCO3)c2cc1OC (configuration not stated) | 3.67% | 5800 nM [rising, partial curve] | 
2 | O=C(COC(=O)/C=C/c1ccc2c(c1)OCO2)Nc1ccc(S(=O)(=O)N2CCCC2)cc1 | -67% | 29100 nM [falling, single point] | 9200 nM [falling, partial curve]
3 | NS(=O)(=O)c1cccc(NC(=S)NC(=O)c2cccc([N+](=O)[O-])c2)c1 | -32% | 29100 nM [falling, single point] | 29100 nM [falling, single point]
4 | CC(C)Nc1nnc(Sc2ccc(Cl)cc2[N+](=O)[O-])s1 | 31.7% | 8200 nM [rising, partial curve] | 8200 nM [rising, partial curve]
5 | CC(C)(C)OC(=O)N1CCC(NC(=O)c2nc[nH]c2C(=O)N2CCN(C(=O)OC(C)(C)C)CC2)CC1 | 15.6% | 5.17 nM [falling, full curve, poor fit] | 23.1 nM [falling, full curve, poor fit]
6 | CSCCC(NS(=O)(=O)c1ccc(Cl)cc1)C(=O)OCC(=O)N1CCOCC1 (configuration not stated) | 1.17% | 5.17 nM [falling, full curve, poor fit] | 
7 | CCCCCOC(=O)C1=C(C)Nc2ncnn2C1c1cccs1 (configuration not stated) | 24.4% | 164 nM [rising, full curve, poor fit] | 366 nM [rising, full curve, poor fit]
8 | CC1=C([N+](=O)[O-])C(c2ccccc2Cl)NC(=O)N1 (configuration not stated) | 12% | 1030 nM [rising, full curve] | 
9 | CCCCCc1nnc(NC(=O)Cn2cnc3ccccc3c2=O)s1 | 12.5% | 29.1 nM [rising, full curve, poor fit] | 
10 | O=S(=O)(Nc1cccnc1)c1cccs1 | 6.88% |  | 
11 | O=C(N/N=C/c1sc(N2CCOCC2)nc1-c1ccccc1)c1ccccc1O | -83.3% | 29100 nM [falling, single point] | 29100 nM [falling, single point]
12 | Cc1nn(C2CCS(=O)(=O)C2)c(C)c1CN(C)C(=O)c1ccc(Cl)cc1 (configuration not stated) | -11.3% | 6510 nM [falling, single point] | 
13 | O=C(Nc1nc(-c2cccs2)cs1)c1ccc(Cl)s1 | -17.4% | 9200 nM [falling, partial curve] | 
14 | Nc1oc2ccccc2c1C(=O)Cc1ccccc1O[C@@H]1O[C@H](CO)[C@@H](O)[C@H](O)[C@H]1O | -30.5% | 1030 nM [falling, full curve] | 1460 nM [falling, partial curve, poor fit]
15 | O=C(Nc1nc(-c2ccc(Cl)s2)cs1)c1ccncc1 | -42.4% | 2590 nM [falling, full curve] | 2910 nM [falling, full curve]
16 | Cc1[nH]c(C)c(S(=O)(=O)NCc2ccc(OC(C)C)cc2)c1C(=O)N1CCCC1 | 11.9% |  | 5800 nM [rising, partial curve]
17 | CCOc1ccc(N(CC(=O)NCc2ccc3c(c2)OCO3)C(=O)c2csnn2)cc1 | 18.1% |  | 
18 | COc1ccc(NC(=O)CSc2nc(=O)n(CCN3CCOCC3)c3c2CCCC3)c(OC)c1 | 14.9% | 259 nM [rising, full curve, poor fit] | 580 nM [rising, partial curve, poor fit]

2 entries from above in a different format:
Row	Compound	cell number change	AC50 [1]	AC50 [2]
6	CSCCC(NS(=O)(=O)c1ccc(Cl)cc1)C(=O)OCC(=O)N1CCOCC1 (configuration not stated)	1.17%	5.17 nM [falling, full curve, poor fit]	
13	O=C(Nc1nc(-c2cccs2)cs1)c1ccc(Cl)s1	-17.4%	9200 nM [falling, partial curve]	

Additional records

Row | Compound | cell number change | AC50 [1] | AC50 [2]
19 | COc1ccc(/C=C/C(=O)Nc2cc(S(=O)(=O)N3CCOCC3)ccc2C)cc1OC | -0.726% | 231 nM [rising, full curve, poor fit] | 
20 | COc1cc(NC(=O)C2=CC(c3ccc(C)cc3)=NS(=O)(=O)N2C)cc(OC)c1OC |  | 1160 nM [falling, partial curve, poor fit] | 
21 | Cc1ccc(C)c(Oc2coc3cc(O)ccc3c2=O)c1 | -1.8% |  | 
22 | CC(=O)c1ccc(OCC(O)CN2CC(C)OC(C)C2)cc1 (configuration not stated) | 4.69% |  | 
23 | COCC(C)NCc1cccc(OC)c1OC (configuration not stated) |  | 92 nM [rising, full curve] | 
24 | O=C(O)C1Sc2[nH]c(=O)sc2C2c3cc(Br)ccc3OC(=O)C12 (configuration not stated) | -11.8% |  | 
25 | CCOC(=O)c1ccc(NC(=O)c2ccc(OC(C)C)c(OC)c2)cc1 | 99.1% | 20600 nM [rising, partial curve] | 20600 nM [rising, partial curve]
26 | O=C(CSc1nnc2ccccn12)NC(=O)Cc1ccccc1 |  |  | 103 nM [rising, single point]
27 | CCOC(=O)C(NC(=O)c1ccccc1)=C1C=C(C)OC(C)=C1 | 2.5% | 4.61 nM [falling, full curve, poor fit] | 
28 | CC(=O)NC(Cc1c[nH]c2ccccc12)C(=O)N/N=C/c1ccccc1 (configuration not stated) | -31% | 13000 nM [falling, partial curve] | 9200 nM [falling, partial curve]
29 | CC(=O)c1cccc(NC(=S)Nc2ccc(F)cc2)c1 | -7.09% | 411 nM [falling, single point] | 
30 | O=C(CCc1nnc(CCC2CCCCC2)o1)NCCn1cccn1 | -3.36% |  | 
31 | O=C(O)CSc1nnc(Cn2cnc3ccccc32)n1CCc1ccccc1 | 3.91% |  | 
32 | Cc1ccc2nc(-c3ccccc3)cc(C(=O)N(C)CC(=O)Nc3ccccc3Br)c2c1 | 66.3% |  | 5800 nM [rising, partial curve]
33 | CC(=O)n1cc([C@@H]2C=C(C(=O)N3CCN(Cc4ccc5c(c4)OCO5)CC3)O[C@H](OCc3ccc(CO)cc3)C2)c2ccccc21 | -9.08% | 32600 nM [falling, single point] | 
34 | Cc1ccc2nc(NC(=O)c3ccc(S(=O)(=O)N4CCCc5ccccc54)cc3)sc2c1 | -2.04% |  | 
35 | COc1ccc(OC)c(-c2nn(-c3ccccc3)cc2C(=O)NCC(c2ccco2)N2CCCC2)c1 (configuration not stated) | -0.618% | 29100 nM [falling, single point] | 
36 | COc1cc(OC)cc(C(=O)Nc2ccc(S(=O)(=O)Nc3ccccn3)cc2)c1 | 31.3% | 580 nM [rising, single point] | 
